{"source": "BigSolDB 2.1"}
{"smiles": "CCN(CC)CC(=O)Nc1c(C)cccc1C", "values": [{"measurement": "solubility (mole fraction)", "setting": "in acetone, 292.15 K", "result": 0.66}, {"measurement": "solubility (mole fraction)", "setting": "in acetone, 297.15 K", "result": 0.69}, {"measurement": "solubility (mole fraction)", "setting": "in acetone, 302.15 K", "result": 0.73}, {"measurement": "solubility (mole fraction)", "setting": "in acetone, 307.15 K", "result": 0.74}, {"measurement": "solubility (mole fraction)", "setting": "in acetone, 312.15 K", "result": 0.77}, {"measurement": "solubility (mole fraction)", "setting": "in acetone, 317.15 K", "result": 0.82}, {"measurement": "solubility (mole fraction)", "setting": "in acetone, 322.15 K", "result": 0.84}, {"measurement": "solubility (mole fraction)", "setting": "in acetone, 327.15 K", "result": 0.87}, {"measurement": "solubility (mole fraction)", "setting": "in acetone, 332.15 K", "result": 0.91}, {"measurement": "solubility (mole fraction)", "setting": "in ethanol, 292.15 K", "result": 0.43}, {"measurement": "solubility (mole fraction)", "setting": "in ethanol, 297.15 K", "result": 0.47}, {"measurement": "solubility (mole fraction)", "setting": "in ethanol, 302.15 K", "result": 0.52}, {"measurement": "solubility (mole fraction)", "setting": "in ethanol, 307.15 K", "result": 0.56}, {"measurement": "solubility (mole fraction)", "setting": "in ethanol, 312.15 K", "result": 0.62}, {"measurement": "solubility (mole fraction)", "setting": "in ethanol, 317.15 K", "result": 0.67}, {"measurement": "solubility (mole fraction)", "setting": "in ethanol, 322.15 K", "result": 0.73}, {"measurement": "solubility (mole fraction)", "setting": "in ethanol, 327.15 K", "result": 0.8}, {"measurement": "solubility (mole fraction)", "setting": "in ethanol, 332.15 K", "result": 0.86}, {"measurement": "solubility (mole fraction)", "setting": "in ethyl acetate, 292.15 K", "result": 0.6}, {"measurement": "solubility (mole fraction)", "setting": "in ethyl acetate, 297.15 K", "result": 0.63}, {"measurement": "solubility (mole fraction)", "setting": "in ethyl acetate, 302.15 K", "result": 0.69}, {"measurement": "solubility (mole fraction)", "setting": "in ethyl acetate, 307.15 K", "result": 0.72}, {"measurement": "solubility (mole fraction)", "setting": "in ethyl acetate, 312.15 K", "result": 0.75}, {"measurement": "solubility (mole fraction)", "setting": "in ethyl acetate, 317.15 K", "result": 0.78}, {"measurement": "solubility (mole fraction)", "setting": "in ethyl acetate, 322.15 K", "result": 0.8}, {"measurement": "solubility (mole fraction)", "setting": "in ethyl acetate, 327.15 K", "result": 0.85}, {"measurement": "solubility (mole fraction)", "setting": "in ethyl acetate, 332.15 K", "result": 0.89}, {"measurement": "solubility (mole fraction)", "setting": "in isobutanol, 292.15 K", "result": 0.65}, {"measurement": "solubility (mole fraction)", "setting": "in isobutanol, 297.15 K", "result": 0.68}, {"measurement": "solubility (mole fraction)", "setting": "in isobutanol, 302.15 K", "result": 0.71}, {"measurement": "solubility (mole fraction)", "setting": "in isobutanol, 307.15 K", "result": 0.74}, {"measurement": "solubility (mole fraction)", "setting": "in isobutanol, 312.15 K", "result": 0.76}, {"measurement": "solubility (mole fraction)", "setting": "in isobutanol, 317.15 K", "result": 0.79}, {"measurement": "solubility (mole fraction)", "setting": "in isobutanol, 322.15 K", "result": 0.82}, {"measurement": "solubility (mole fraction)", "setting": "in isobutanol, 327.15 K", "result": 0.86}, {"measurement": "solubility (mole fraction)", "setting": "in isobutanol, 332.15 K", "result": 0.9}, {"measurement": "solubility (mole fraction)", "setting": "in isopropanol, 292.15 K", "result": 0.6}, {"measurement": "solubility (mole fraction)", "setting": "in isopropanol, 297.15 K", "result": 0.62}, {"measurement": "solubility (mole fraction)", "setting": "in isopropanol, 302.15 K", "result": 0.66}, {"measurement": "solubility (mole fraction)", "setting": "in isopropanol, 307.15 K", "result": 0.7}, {"measurement": "solubility (mole fraction)", "setting": "in isopropanol, 312.15 K", "result": 0.74}, {"measurement": "solubility (mole fraction)", "setting": "in isopropanol, 317.15 K", "result": 0.76}, {"measurement": "solubility (mole fraction)", "setting": "in isopropanol, 322.15 K", "result": 0.79}, {"measurement": "solubility (mole fraction)", "setting": "in isopropanol, 327.15 K", "result": 0.83}, {"measurement": "solubility (mole fraction)", "setting": "in isopropanol, 332.15 K", "result": 0.89}, {"measurement": "solubility (mole fraction)", "setting": "in methyl acetate, 292.15 K", "result": 0.51}, {"measurement": "solubility (mole fraction)", "setting": "in methyl acetate, 297.15 K", "result": 0.55}, {"measurement": "solubility (mole fraction)", "setting": "in methyl acetate, 302.15 K", "result": 0.61}, {"measurement": "solubility (mole fraction)", "setting": "in methyl acetate, 307.15 K", "result": 0.66}, {"measurement": "solubility (mole fraction)", "setting": "in methyl acetate, 312.15 K", "result": 0.71}, {"measurement": "solubility (mole fraction)", "setting": "in methyl acetate, 317.15 K", "result": 0.74}, {"measurement": "solubility (mole fraction)", "setting": "in methyl acetate, 322.15 K", "result": 0.78}, {"measurement": "solubility (mole fraction)", "setting": "in methyl acetate, 327.15 K", "result": 0.84}, {"measurement": "solubility (mole fraction)", "setting": "in methyl acetate, 332.15 K", "result": 0.88}, {"measurement": "solubility (mole fraction)", "setting": "in n-butanol, 292.15 K", "result": 0.64}, {"measurement": "solubility (mole fraction)", "setting": "in n-butanol, 297.15 K", "result": 0.67}, {"measurement": "solubility (mole fraction)", "setting": "in n-butanol, 302.15 K", "result": 0.7}, {"measurement": "solubility (mole fraction)", "setting": "in n-butanol, 307.15 K", "result": 0.74}, {"measurement": "solubility (mole fraction)", "setting": "in n-butanol, 312.15 K", "result": 0.76}, {"measurement": "solubility (mole fraction)", "setting": "in n-butanol, 317.15 K", "result": 0.77}, {"measurement": "solubility (mole fraction)", "setting": "in n-butanol, 322.15 K", "result": 0.8}, {"measurement": "solubility (mole fraction)", "setting": "in n-butanol, 327.15 K", "result": 0.84}, {"measurement": "solubility (mole fraction)", "setting": "in n-butanol, 332.15 K", "result": 0.89}, {"measurement": "solubility (mole fraction)", "setting": "in n-propanol, 292.15 K", "result": 0.64}, {"measurement": "solubility (mole fraction)", "setting": "in n-propanol, 297.15 K", "result": 0.67}, {"measurement": "solubility (mole fraction)", "setting": "in n-propanol, 302.15 K", "result": 0.7}, {"measurement": "solubility (mole fraction)", "setting": "in n-propanol, 307.15 K", "result": 0.74}, {"measurement": "solubility (mole fraction)", "setting": "in n-propanol, 312.15 K", "result": 0.76}, {"measurement": "solubility (mole fraction)", "setting": "in n-propanol, 317.15 K", "result": 0.79}, {"measurement": "solubility (mole fraction)", "setting": "in n-propanol, 322.15 K", "result": 0.82}, {"measurement": "solubility (mole fraction)", "setting": "in n-propanol, 327.15 K", "result": 0.85}, {"measurement": "solubility (mole fraction)", "setting": "in n-propanol, 332.15 K", "result": 0.9}]}
